# Counter-ions that a name gives are not always drawn. The list shows a part of the results. Hit calls seldom repeat between salt and free forms of one compound.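 Kinases were expressed as nanoluciferase fusions in K562 cells and luminescence was read every 4 h between 2 and 18 h as percent of control, DMSO set to 100% and a positive control to 0%. A time point counts as decreased when the signal drops significantly (2 sigma). The hit call is the authors' own, does not follow from the count of time points alone, and its rule is not shown.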
# Chains of the proteins cited; added tags and fusions are not shown. Lines headed by an entry give the natural chain unless they say otherwise; changes in a name come on top.
# UniProt O14965: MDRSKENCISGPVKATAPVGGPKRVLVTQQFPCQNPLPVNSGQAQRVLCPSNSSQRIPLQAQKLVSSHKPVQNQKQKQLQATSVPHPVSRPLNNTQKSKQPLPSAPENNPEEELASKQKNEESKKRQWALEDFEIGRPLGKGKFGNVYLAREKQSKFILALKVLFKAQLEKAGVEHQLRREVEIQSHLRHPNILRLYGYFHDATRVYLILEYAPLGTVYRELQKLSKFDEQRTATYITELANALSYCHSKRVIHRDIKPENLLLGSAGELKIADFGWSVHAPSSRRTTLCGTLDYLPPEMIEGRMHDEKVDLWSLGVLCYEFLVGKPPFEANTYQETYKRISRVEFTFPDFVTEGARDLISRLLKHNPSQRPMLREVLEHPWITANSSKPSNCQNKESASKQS
# Biological target: AURKA (UniProt O14965)
# Experiment: number of time points (of 5) at which kinase-Nluc abundance scored as decreased, DMSO-normalised (count); higher = more persistent destabilization
# Details: K562; 2-18 h
row,SMILES,number of time points
1,N#Cc1cnc2c(Cl)cc(NCc3cn(CCN4CCCCCC4)nn3)cc2c1Nc1ccc(F)c(Cl)c1 [Cot inhibitor-1] (10 µM),0
2,Cc1cc(Nc2cc(N)ncn2)c(=O)n2c1C(=O)NC21CCCCC1 [Tomivosertib] (10 µM),0
3,CC(Cc1ccc(O)c(O)c1)C(C)Cc1ccc(O)c(O)c1 (configuration not stated) [Nordihydroguaiaretic acid] (2.5 µM),0
4,CNC(=O)c1ccc2c(C(=Nc3cccc(CN(C)C)c3)c3ccccc3)c(O)[nH]c2c1 [MEK inhibitor] (10 µM),0
5,COC(=O)[C@H](CCSC)NC(=O)c1ccc(NC[C@@H](N)CS)cc1-c1ccccc1 [FTI-277 (hydrochloride)] (10 µM),0
6,C=CC(=O)Nc1ccc(C(=O)Nc2[nH]nc3c2CN(C(=O)N[C@H](CN(C)C)c2ccccc2)C3(C)C)cc1 (10 µM),3
7,CCN(CC)CCCC(C)Nc1nc(C)cc(Nc2ccc3nc(C)cc(N)c3c2)n1 (configuration not stated) (10 µM),0
8,COc1cc(F)ccc1-c1ncnc(Nc2cccc(C[S@](C)(=N)=O)c2)n1 [Atuveciclib] (2.5 µM),3
9,O=C(c1cccc(Cl)c1F)N1CCN(Cc2cccc(Nc3nccs3)n2)CC1 (2.5 µM),0
10,N#Cc1ccc(-c2cnc3ccc(-c4ccc(C(=O)N5CCOCC5)cc4)cn23)cc1 (10 µM),0
11,Cc1ccc(C(=O)NC2CC2)cc1-n1ncc(C(=O)c2cccc(C#N)c2)c1N [Acumapimod] (10 µM),0
12,N#Cc1ccc(-c2cnc3[nH]cc(NC(=O)c4cccnc4)c3c2)cc1 (10 µM),0

# Quoted at random: 2 records from the list, in no set order.
row,SMILES,number of time points
7,CCN(CC)CCCC(C)Nc1nc(C)cc(Nc2ccc3nc(C)cc(N)c3c2)n1 (configuration not stated) (10 µM),0
10,N#Cc1ccc(-c2cnc3ccc(-c4ccc(C(=O)N5CCOCC5)cc4)cn23)cc1 (10 µM),0

# — the supplement of paper PMC12823440, “Inhibitors supercharge kinase turnover through native proteolytic circuits” (Nature, 2025)
